Values quoted from earlier work, collected in patent EP1870093A1, “Pharmaceutical combination comprising adenosine A1 receptor antagonists and radiocontrast media” (Solvay Pharmaceuticals GmbH, priority 2006, dated 2007).
Read-outs that look alike come from different tables or passages of the source. At least one structure is not confirmed: it was looked up by name or label, or the drawing left a doubt.

System: dogs

In the case of `CC(=O)N(CC(O)CO)c1c(I)c(C(=O)NCC(O)CO)c(I)c(C(=O)NCC(O)CO)c1I` (centres unmarked) [iohexol], the “renal response to the contrast medium” value (impaired renal function) is given as “induces both A2 and A1 activation” and the “renal response to the contrast medium” value (normal renal function, by activating mainly the adenosine A2 receptors) is given as “elicits renal vasodilation”.
